Reference: patent US11518747B2, “Solid forms of an N-terminal domain androgen receptor inhibitor and uses thereof” (ESSA Pharma, Inc., priority 2020, dated 2022)
pIC50: −log10 of the molar value.

Tested on: LNCaP cells
Experiment: Cell proliferation/viability, Alamar blue, AR specific proliferation with or without 0.1 nM R1881
Assay type: cell-based
Conditions: Homo sapiens, read-out: Cellular Proliferation/Viability IC50
Method: In LNCaP cells, AR specific proliferation is calculated by measuring the difference between control cells treated with or without 0.1 nM R1881.

`CNC(=O)c1ccc(N2C(=S)N(c3ccc(C#N)c(C(F)(F)F)c3)C(=O)C2(C)C)cc1F` [Enzalutamide] gave a pIC50 of 6.46.
